Experimental findings from patent publication US20110091945A1, “METHODS OF INCREASING BIOMASS PRODUCTIVITY, LIPID INDUCTION, AND CONTROLLING METABOLITES IN ALGAE FOR PRODUCTION OF BIOFUELS USING BIOCHEMICAL STIMULANTS” (priority 2009, published 2011) are described below.

The test system of this data set is Chlorella sorokiniana. The data set is described as follows: Malathion twelve day growth study: pH of the growth medium. Type of data set: cell-based, Chlorella sorokiniana (UTEX 2805).

Where “and” joins values, the source holds several entries; their conditions need not be identical. Identical values can stand only once.

As for `CCOC(=O)CC(SP(=S)(OC)OC)C(=O)OCC` (stereo not drawn) [malathion, 2-(dimethoxyphosphinothioylthio)butanedioic acid diethyl ester], the “maximum pH value of the growth medium” value (70 mg malathion L^−1, by day 6) is “about 9.5”. The “pH of the growth medium” value was 9.6 and 9.23 (140 mg malathion L^−1, day 12); “below 7” (280 mg malathion L^−1, day 3, 6, 9 and 12).
